Results: the supplement of paper PMC12823440, “Inhibitors supercharge kinase turnover through native proteolytic circuits” (Nature, 2025)
Where a name gives a salt, the structure may show the parent alone. Some of the results follow. The calls rarely recur for the same compound in another form.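 Kinases were expressed as nanoluciferase fusions in K562 cells and luminescence was read every 4 h between 2 and 18 h as percent of control, DMSO set to 100% and a positive control to 0%. A time point counts as decreased when the signal drops significantly (2 sigma). The hit call is the authors' own, does not follow from the count of time points alone, and its rule is not shown.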

Protein sequences, listed by entry. Tags and fused reporters are not part of them.
UniProt P06241, whole entry, looked up: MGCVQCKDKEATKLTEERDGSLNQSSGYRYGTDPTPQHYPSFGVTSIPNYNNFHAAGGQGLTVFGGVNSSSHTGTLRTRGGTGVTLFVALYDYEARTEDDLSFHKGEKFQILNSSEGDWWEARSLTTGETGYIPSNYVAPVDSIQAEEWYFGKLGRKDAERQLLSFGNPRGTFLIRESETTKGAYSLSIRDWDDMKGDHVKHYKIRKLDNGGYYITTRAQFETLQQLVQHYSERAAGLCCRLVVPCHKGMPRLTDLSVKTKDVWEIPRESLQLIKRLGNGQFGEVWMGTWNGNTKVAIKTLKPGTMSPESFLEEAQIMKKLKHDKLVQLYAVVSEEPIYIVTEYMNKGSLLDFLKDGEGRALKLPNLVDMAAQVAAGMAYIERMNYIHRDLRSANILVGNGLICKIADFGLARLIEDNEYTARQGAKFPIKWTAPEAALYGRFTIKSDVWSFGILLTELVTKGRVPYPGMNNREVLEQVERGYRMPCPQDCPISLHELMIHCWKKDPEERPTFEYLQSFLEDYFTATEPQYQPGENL

molecular target: FYN (UniProt P06241); assay: kinase-Nluc reporter destabilization hit call (1 = scored as downregulated) (binary); higher = compound decreases kinase abundance; details: K562; 2-18 h

Compound | kinase-Nluc reporter destabilization hit call
O=c1[nH]c2ccccc2n1C1CCN(Cc2ccc(-c3[nH]c4cc5ncnc5cc4nc3-c3ccccc3)cc2)CC1 [AKT inhibitor VIII] (2.5 µM) | inactive: 0
C[C@H]1CC[C@]2(NC1)O[C@H]1C[C@H]3[C@@H]4CC[C@H]5C[C@@H](O[C@@H]6O[C@H](CO)[C@H](O[C@@H]7O[C@H](CO)[C@@H](O)[C@H](O[C@@H]8OC[C@@H](O)[C@H](O)[C@H]8O)[C@H]7O[C@@H]7O[C@H](CO)[C@@H](O)[C@H](O)[C@H]7O)[C@H](O)[C@H]6O)CC[C@]5(C)[C@H]4CC[C@]3(C)[C@H]1[C@@H]2C [Tomatine] (2.5 µM) | inactive: 0
C=C[C@H]1CN2CC[C@]3(C(=O)Nc4ccccc43)[C@@H]2C[C@@H]1/C(=C\OC)C(=O)OC [Corynoxeine] (2 µM) | inactive: 0
C=CC(=O)Nc1ccc2[nH]c(=O)n(C3CCN(Cc4ccc(-c5nc6cc[nH]c(=O)c6cc5-c5ccccc5)cc4)CC3)c2c1 [Borussertib] (10 µM) | inactive: 0
CCOC(=O)c1c(/C(C#N)=C\N)c2ccc(Cl)c(Cl)c2n1C (10 µM) | inactive: 0
CC(=O)OC(C)(C)/C=C/C(=O)[C@](C)(O)[C@H]1[C@H](O)C[C@@]2(C)[C@@H]3CC=C4[C@@H](C=C(O)C(=O)C4(C)C)[C@]3(C)C(=O)C[C@]12C [Cucurbitacin E] (2.5 µM) | inactive: 0
Cc1[nH]ncc1-c1cc2nc([C@H]3CC4CCN3CC4)[nH]c(=O)c2s1 [(R)-Simurosertib] (10 µM) | inactive: 0
C[C@H]1CC[C@]2(NC1)O[C@H]1C[C@H]3[C@@H]4CC[C@H]5C[C@@H](O)CC[C@]5(C)[C@H]4CC[C@]3(C)[C@H]1[C@@H]2C [Tomatidine] (2 µM) | inactive: 0
O=Cc1cn(Cc2ccc(Cl)cc2)c2ccccc12 [Oncrasin-1] (10 µM) | inactive: 0
O=[N+]([O-])/C=C/c1ccc2c(c1)OCO2 (2.5 µM) | inactive: 0
CCN1CCN(C(=O)Cc2ccc(Nc3ncc(F)c(Nc4ccc(C(=O)Nc5ccccc5Cl)cc4)n3)cc2)CC1 (2.5 µM) | inactive: 0
COc1ccc2c(c[n+](C)c3c4cc5c(cc4ccc23)OCO5)c1OC [Chelerythrine (chloride)] (10 µM) | inactive: 0
COC[C@H]1OC(=O)c2coc3c2[C@@]1(C)C1=C(C3=O)[C@@H]2CCC(=O)[C@@]2(C)C[C@H]1OC(C)=O [Wortmannin] (2.5 µM) | active: 1
C[C@H]1CC[C@]2(NC1)O[C@H]1C[C@H]3[C@@H]4CC[C@H]5C[C@@H](O)CC[C@]5(C)[C@H]4CC[C@]3(C)[C@H]1[C@@H]2C [Tomatidine (hydrochloride)] (10 µM) | inactive: 0
COc1ccc(/C=C/c2cc(OC)c(OC)c(OC)c2)cc1 (2.5 µM) | inactive: 0
O=c1cc(O)c2ccccc2o1 [4-Hydroxycoumarin] (10 µM) | inactive: 0
C=CC(=O)N[C@H]1C=C(C)c2c(-c3cnc4ccccc4c3)c3c(N)ncnc3n2C1 (10 µM) | inactive: 0
N#CC(C#N)=Cc1ccc([N+](=O)[O-])c(O)c1 (10 µM) | inactive: 0
O=C(O)c1sc2cc(Cl)ccc2c1Cl (10 µM) | inactive: 0
Cc1n[nH]cc1-c1cc2nc([C@@H]3CC4CCN3CC4)[nH]c(=O)c2s1 [Simurosertib] (2.5 µM) | inactive: 0
Cn1cc(C2=C(c3cn(C4CCN(Cc5ccccn5)CC4)c4ccccc34)C(=O)NC2=O)c2ccccc21 [Enzastaurin] (10 µM) | inactive: 0
CN(C)C(=O)c1ccc(Cn2c(C(=O)O)cc3c(Br)cc(Sc4ccc(Cl)c(Cl)c4)cc32)cc1 [Rheb inhibitor NR1] (10 µM) | inactive: 0
C/C(O)=C(\C#N)C(=O)Nc1cc(Br)ccc1Br (10 µM) | inactive: 0
O=C1c2ccccc2C(=O)c2c1cccc2-c1cnn(C2CCNCC2)c1 [PDK4-IN-1 (hydrochloride)] (10 µM) | inactive: 0
COc1ccc(N(C(=O)Oc2c(C)cccc2C)c2ccnc(Nc3ccc(N4CCN(C)CC4)cc3)n2)c(OC)c1 (2.5 µM) | inactive: 0
C[C@@H]1CC[C@H]2[C@@H](C)C(=O)O[C@@H]3O[C@@]4(C)CC[C@@H]1[C@]32OO4 [Artemisinin] (10 µM) | inactive: 0
CC(C)(C)c1cc(C=C(C#N)C#N)cc(Br)c1O (2.5 µM) | inactive: 0
CC1=C[C@]23C(=O)[C@@H](C=C(CO)[C@@H](O)[C@]2(O)[C@H]1O)[C@H]1[C@@H](C[C@H]3C)C1(C)C [Ingenol] (10 µM) | inactive: 0

Fetched one by one from the entries so far, 2 records:
Compound | kinase-Nluc reporter destabilization hit call
C[C@@H]1CC[C@H]2[C@@H](C)C(=O)O[C@@H]3O[C@@]4(C)CC[C@@H]1[C@]32OO4 [Artemisinin] (10 µM) | inactive: 0
CC(=O)OC(C)(C)/C=C/C(=O)[C@](C)(O)[C@H]1[C@H](O)C[C@@]2(C)[C@@H]3CC=C4[C@@H](C=C(O)C(=O)C4(C)C)[C@]3(C)C(=O)C[C@]12C [Cucurbitacin E] (2.5 µM) | inactive: 0
